Data reported in patent US7208314B2, “Compositions and methods for drug delivery using pH sensitive molecules” (priority 2002, dated 2007).
For at least one compound, name, drawing or mass did not settle the structure. Peptide text beside a SMILES is read from it. * marks the point of attachment. X1 = C/C(C(=O)O)=C(\C)C(=O)*

Test: Kinetics of conversion of dimethylmaleamic modified amines to amines at pH 5 (trinitrobenzenesulfonate)
Assay type: physicochemical
Details: 40 mM sodium acetate buffer pH 5
Procedure: Dimethyl maleamic modified poly-L-lysine (10 mg/mL) was incubated in 10 mM sodium acetate buffer pH 5. At various times, aliquots (10 μg) were removed and added to 0.5 mL of 100 mM borax solution containing 0.4 mM trinitrobenzenesulfonate. A half an hour later, the absorbance of the solution at 420 nm was measured. To determine the concentration of amines at each time point, the extinction coefficient was determine for the product of trinitrobenzenesulfonate and poly-L-lysine. Using this extinction coefficient we were able to calculate the amount of amines and maleamic groups at each time point. A plot of ln (At/A0) as a function of time was a straight line whose slope is the negative of the rate constant for the conversion of maleamic acid to amine and anhydride, where At is the concentration of maleamic acid at a time t and A0 is the initial concentration of maleamic acid. For two separate experiments we calculated rate constants of […] which correspond to half lives of roughly 10 and 4 minutes respectively.
Dimethyl maleamic modified KL3 (0.1 mg/mL) was incubated in 40 mM sodium acetate buffer pH 5 and 1 mM cetyltrimetylammonium bromide. At various times, aliquots (10 μg) were removed and added to 0.05 mL of 1 M borax solution containing 4 mM trinitrobenzenesulfonate. A half an hour later, the absorbance of the solution at 420 nm was measured. […]

C/C(C(=O)O)=C(\C)C(=O)NCCCC[C@H](NC(=O)/C(C)=C(/C)C(=O)O)C(=O)N[C@@H](CC(C)C)C(=O)N[C@@H](CC(C)C)C(=O)N[C@@H](CCCCNC(=O)/C(C)=C(/C)C(=O)O)C(=O)N[C@@H](CC(C)C)C(=O)N[C@@H](CC(C)C)C(=O)N[C@@H](CC(C)C)C(=O)N[C@@H](CCCCNC(=O)/C(C)=C(/C)C(=O)O)C(=O)N[C@@H](CC(C)C)C(=O)N[C@@H](Cc1c[nH]c2ccccc12)C(=O)N[C@@H](CC(C)C)C(=O)N[C@@H](CCCCNC(=O)/C(C)=C(/C)C(=O)O)C(=O)N[C@@H](CC(C)C)C(=O)N[C@@H](CC(C)C)C(=O)N[C@@H](CCCCNC(=O)/C(C)=C(/C)C(=O)O)C(=O)N[C@@H](CC(C)C)C(=O)N[C@@H](CC(C)C)C(=O)N[C@@H](CC(C)C)C(=O)N[C@@H](CCCCNC(=O)/C(C)=C(/C)C(=O)O)C(=O)N[C@@H](CC(C)C)C(=O)N[C@@H](CC(C)C)C(=O)O [2,3-dimethylmaleamic KL3] (X1-K(X1)LLK(X1)LLLK(X1)LWLK(X1)LLK(X1)LLLK(X1)LL-OH; N-terminus and C-terminus assumed)
half-life of conversion to KL3: roughly 8 minutes
